pKd: −log10 of the molar value. The exact form of at least one protein or probe is not confirmed.
Target: Lysozyme (Gallus gallus (hen egg white)) (UniProt P00698)
Assay: binding assay
Conditions: 5'-NH2, immobilized on triazine-functionalized silica nanoparticles (~60 aptamers per NP), purified native protein, protein details: Sigma-Aldrich, single-stranded DNA

How did the pKd (CITED Cox and Ellington 2001, measured in solution) turn out when “ATCTACGAATTCATCAGGGCTAAAGAGTGCAGAGTTACTTAG [Anti-lysozyme aptamer]” was run?
Its pKd is 7.51.

And the pKd (apparent Kd approx 9 ug/mL, half-maximum PFVSO3 polymer fluorescence on 60 Apt-NP, 20 mM Tris-HCl, 100 mM NaCl, 5 mM MgCl2, pH 8.5, room temperature)?
The pKd was 6.20.

— patent publication US20130189727
